{"source": "PubChem BioAssay AID1259300 (Sanger Institute, 2017)", "test": "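Kinase and colorectal-mutated gene knock-downs lowering HCT15 viability or boosting drug effects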 (primary screen)", "system": "HCT15 colorectal cancer cells", "reagents": "siRNA pool against human genes", "conditions": "anchor drug or DMSO vehicle added 24 h after seeding: BYL719 1 µM, cetuximab 5 µg/ml, trametinib 10 nM; drug doses chosen to barely affect viability alone", "read-out": "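Replicate-mean viability relative to non-targeting pool control with robust z-score for knock-down without drug; per-drug synergy scores for BYL719 (1 µM), cetuximab (5 µg/ml), trametinib (10 nM)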", "scale": "viability z-score, siRNA alone: higher = more viable cells after knock-down; viability vs non-targeting, siRNA alone: higher = more viable cells", "call rule": "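Called active (essential) if viability z-score with knock-down alone falls below -3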", "calls": "active = essential: knock-down alone lowers viability (z below -3); inactive = no strong viability loss with knock-down alone", "note": "The deposit covers 794 reagents; this is an unselected part. In the full data, 18 (2.3%) were called active. 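Calls rest on knock-down alone, not drug synergy; depositor treated synergy scores above 0.15 as synergistic; drug doses alone had little viability effect.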 Unmarked entries are inactive. Viability is capped at 1. Further read-outs or replicates are left out here. Reagent sequences are not shown. Not given: the amount of reagent, the time to read-out."}
{"gene symbol": "SGK1", "PubChem SID": "SID152156682", "viability z-score, siRNA alone": 0.625, "viability vs non-targeting, siRNA alone": 1}
{"gene symbol": "SRGAP3", "PubChem SID": "SID152151814", "viability z-score, siRNA alone": 0.625, "viability vs non-targeting, siRNA alone": 1}
{"gene symbol": "CDKL4", "PubChem SID": "SID135624323", "viability z-score, siRNA alone": 0.625, "viability vs non-targeting, siRNA alone": 1}
{"gene symbol": "GUCY2EP", "PubChem SID": "SID152152788", "viability z-score, siRNA alone": 0.087, "viability vs non-targeting, siRNA alone": 0.961}
{"gene symbol": "RPS6KB1", "PubChem SID": "SID152147142", "viability z-score, siRNA alone": 0.625, "viability vs non-targeting, siRNA alone": 1}
{"gene symbol": "NTN4", "PubChem SID": "SID152155179", "viability z-score, siRNA alone": -0.76, "viability vs non-targeting, siRNA alone": 0.899}
{"gene symbol": "PRKDC", "PubChem SID": "SID56478960", "viability z-score, siRNA alone": -1.93, "viability vs non-targeting, siRNA alone": 0.814}
{"gene symbol": "CSNK1G1", "PubChem SID": "SID152156369", "viability z-score, siRNA alone": -1.87, "viability vs non-targeting, siRNA alone": 0.818}
{"gene symbol": "PAK5", "PubChem SID": "SID56478749", "viability z-score, siRNA alone": 0.625, "viability vs non-targeting, siRNA alone": 1}
{"gene symbol": "PCBP1", "PubChem SID": "SID134316528", "viability z-score, siRNA alone": -0.228, "viability vs non-targeting, siRNA alone": 0.938}
{"gene symbol": "PMVK", "PubChem SID": "SID135621255", "viability z-score, siRNA alone": 0.625, "viability vs non-targeting, siRNA alone": 1}
{"gene symbol": "ITPKB", "PubChem SID": "SID56479111", "viability z-score, siRNA alone": 0.484, "viability vs non-targeting, siRNA alone": 0.99}

Entries listed so far whose target name starts with C or c:
{"gene symbol": "CDKL4", "PubChem SID": "SID135624323", "viability z-score, siRNA alone": 0.625, "viability vs non-targeting, siRNA alone": 1}
{"gene symbol": "CSNK1G1", "PubChem SID": "SID152156369", "viability z-score, siRNA alone": -1.87, "viability vs non-targeting, siRNA alone": 0.818}
